Results from one PubChem assay

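Genome-wide siRNA knockdown in TC32 Ewing sarcoma cells, comparing luciferase light from an NR0B1-promoter reporter with a CMV-promoter reporter 48 hours after transfection.
Each siRNA was applied at 20 nM.
A z-score of the log NR0B1-over-CMV signal, less the median of siRNAs with the same seed; more negative means a stronger specific loss of the NR0B1 reporter.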

The strongest results of the screen are mostly left out here.
Sequences are the guide (antisense) strand, without overhang.

strand,target gene,seed-corrected z-score
UUAAUUCCUUCUUGGGUUG,PAK3,-1.351
UGCAUGUCCAAUAGCUUCC,PSMA4,-0.3442
UUUUUCUCCAGCUUGACAA,WFDC3,1.076
UUGGAGAUAAGGUCGCGCU,CD74,0.1031
AACUUUAAUGCUGUGCUCU,AGTRAP,-0.066
UCGGAAUUAAAUUCUAGCC,CSMD3,-0.6377
UUAUUGAAGGCAGUGAGCG,KRTCAP2,0.689
UUGCGGAGGAUGAAAGUUU,LOC401286,0.001337
UCAAGUAGGACAGGUACGU,MPV17L2,0.1988
UGAAAAAUGACUAAUUACG,KIAA0754,-0.3877
UGCUGAUUCAAAGCAGCUC,RHPN2,-0.04638
UAAAUGCACGUGUUUCACU,C11orf52,0.804
UUGAAUUUUAUCUUCACUG,CRIP3,0.4051
UCCUCAUCCCGGAUGAUGG,NPEPL1,0.05333
AUGGGUUCCAGUGAAGUAG,SCRN1,0.008108
UAACGAAGAGGUUGAACAC,RASGEF1A,0.53
UGACUUUUAAGUCCCAGUC,ERI3,1.169
UUUUCGGUUGUUACGGUAG,SCN10A,0.08759
UGCAGAACCAUGACAGGUG,LY6G6F,0.04773
UUAUGUUCUUCUCUGCACG,HMGB3P27,-1.34
UUGAGGGCAUCCAAGAUCC,COL23A1,-0.7998
ACUUGAUCCGGUGUUAUGG,FIGNL1,-0.1438
AACUGAUUCAUCUUUGGUG,BPIFA3,0.7258
UUCUCGAUGGUCAUGGUCU,CTIF,-0.2973
UGUGCAGCAAGAAUUCAGC,RPL17P39,-1.145
UCCCAUACCAGUAUCGAAG,SAMD9,-0.002219
UUUUCGAUUACUUCCACAC,ZMYM2,-0.2449
UUUUCUUCUCGGUAGGUCG,GJB3,-0.2483
UACCUAUGCAGACUCUCGC,GRIN2D,-0.4316
UGGUUGAUCACCUUGACUG,USP10,0.1675
UCAAGUCUCAUAGCAACUG,CYP3A7,-1.122
UGGAGUCUGAUUGCCCUGC,SLC35F6,0.5107
UGCAUACAGAAGACUGUCC,RBM39,-1.802
AUCGCUUCCAUCUUUACGU,LOC400099,-0.1488
UCUGGUGUCCGACUUGCUG,LIME1,-0.1162
UGAGGGCAUAGAUCUCUGC,SVBP,-0.971
UAUGGAUGCUGGAAAGUCU,KREMEN1,0.9861
UUGUAGUGGACGAUCUUGC,DMPK,0.5704
UAACCUUGUUUAGCCAGUC,RPLP2P1,-0.4605
UCUUUUGCAGGUAACACCC,CCKAR,-0.5218
AAACUUGUUCUUGCGGUGA,TOMM40,1.213
UUGAGUUCAAAGUCAAGUC,MFSD6,-1.256
ACAGGUAACAGACAAUGUC,DGKB,1.376
UUCCAGACUGAACAGGUCC,BTNL9,0.1232
UAUAGGCCAACCCAUAUUC,ZNF655,1.599
UUGCUGAAAAGUGAUUUCC,MCUR1,0.3265
UUCCAUGCAAAUGCUGAUC,MAP2K2,0.217
AACACGUUUGGGUCCAUGG,SNX31,-0.01709
UAAGUUUGGUCUUAGAGGG,STAR,-0.2483
UGAGUGUUUACGCAUCUUG,TCEANC2,-0.8591
UGUGAUCUCAGUGACAACG,AVIL,0.4108
UCCAUUGAACCCAUCGAUC,C17orf98,-0.3354
UAUCGUCUUUGUCAAGCUC,RPAP3,-0.9148
UCGUUGACCAGAAACUCGC,HOXC12,0.3359
UCCGUUUCUAUACUCACUG,NINL,-0.5068

For reference, 6 entries once more:

| strand | target gene | seed-corrected z-score |
|---|---|---|
| `UUUUCGAUUACUUCCACAC` | ZMYM2 | -0.2449 |
| `UGCAUGUCCAAUAGCUUCC` | PSMA4 | -0.3442 |
| `UGAGUGUUUACGCAUCUUG` | TCEANC2 | -0.8591 |
| `AUCGCUUCCAUCUUUACGU` | LOC400099 | -0.1488 |
| `UAUAGGCCAACCCAUAUUC` | ZNF655 | 1.599 |
| `UCAAGUAGGACAGGUACGU` | MPV17L2 | 0.1988 |

From PubChem BioAssay record AID1159506 (NCATS, 2015).